Patent US20250243243A1, “DISRUPTION OF SONIC HEDGEHOG-SURF4 INTERACTION FOR CANCER TREATMENT” (The Hong Kong University of Science and Technology, priority 2022, published 2025)
Not every detail of the peptide structures is certain; ends, links or a residue may be inferred. Where no end group is shown, it is not given here.

By UniProt entry, the sequences of proteins in these tests, tags left out.
UniProt P08515, whole entry: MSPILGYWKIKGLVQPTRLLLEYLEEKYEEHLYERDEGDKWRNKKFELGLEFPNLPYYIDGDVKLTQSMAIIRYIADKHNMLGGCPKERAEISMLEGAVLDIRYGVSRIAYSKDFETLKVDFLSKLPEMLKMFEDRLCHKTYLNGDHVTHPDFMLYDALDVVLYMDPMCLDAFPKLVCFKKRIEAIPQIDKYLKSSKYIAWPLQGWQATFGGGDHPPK

Tests used:
GST [1] = biological target: T1, GST (Schistosoma japonicum, UniProt P08515); assay: Peptide binding assay: immobilized peptides, GST as prey, immunoblot; conditions: pull down, GST control prey
T1 construct: made in house; host or cells: E. coli
Description: Immunoprecipitation was performed as described (27). Purification of GST-tagged ShhN^25-49 and GST-tagged […] was performed as described previously (54). GST pull down assays were performed as described previously (54). Peptide binding assay was performed as described previously (27).
Peptide binding assay was performed as described previously (59). Synthetic CW peptides ([…]; SEQ ID NO: 6), CW^MT peptides ([…]; SEQ ID NO: 9), SURF4^49-61 peptides ([…]; SEQ ID NO: 10), SURF4^49-60 peptides ([…]; SEQ ID NO: 12), or RRFR peptides ([…]; SEQ ID NO: 11) were purchased from GenScript and coupled to thiopyridone-Sepharose 6B beads (Sigma-Aldrich) via the added C-terminal cysteine residue. For binding experiments, 2 ? g purified GST-tagged SURF4^49-60 or Shh^25-49-GST was preincubated at 4° C. for 30 min in a total volume of […] HK buffer. After incubation, […] buffer containing around 5 ? l beads containing 5 nmol of peptides was added to the reaction mixture for 1 h at 4° C. The beads were washed four times with […] of HK buffer and analyzed by immunoblotting.

GST [2] = biological target: T1, GST; assay: Isothermal titration calorimetry (ITC) of CW peptide with GST (control protein); assay type: binding; conditions: pH 7.2

**Q.** What does the source list for KRRHPKKC [CW peptides]?
**A.** binding of GST to immobilized peptides (GST [1]): binds weakly; binding between GST and CW peptides (GST [2]): no binding was detected
